Our source for the AC50 values is PubChem BioAssay AID493014 (National Center for Advancing Translational Sciences (NCATS), 2011).

The other results are listed elsewhere or left out. Shown are side measurements of this screen, not its main read-out; they come without a call. Most of these compounds were active or inconclusive in the main read-out, so they are no random draw. Words in brackets tell the shape of the fitted curve; partial curves, single points and poor fits give uncertain potencies.

A short description of the assay: qHTS Assay to Find Inhibitors of Chronic Active B-Cell Receptor Signaling. The conditions noted are these: ABC-DLBCL IkBa-CBG/CBR reporter, luminescence ratio (green luciferase fused to IkBa over red control in TMD8 lymphoma cells), 4 h. Summed up: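 TMD8 human ABC-DLBCL cells with doxycycline-inducible IκBα–green luciferase fusion and unfused red luciferase, in 0.5% FBS medium; compounds up to 46 uM, 4 h at 37C. Green/red luminescence ratio, filter-overlap corrected, fitted to concentration-response curves.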
On the technique in general: qHTS replaces the single test concentration by a dilution series.

The mark [1] stands for this setting: measured here: CBR red luminescence, cell number.
[2] abbreviates: measured here: IkBa-CBG green luminescence.

As usually defined, the AC50 is the midpoint of the concentration-response curve, whichever way the signal moves. `CCCn1c2ccccc2c2cnn(CC(=O)N(CC)CC)c(=O)c21`: the half-maximal activity concentration (AC50) under setting [1] was 3.55 µM [rising, full curve, poor fit].

For the compound `N=C1SCC(=O)N1c1ncc(Cc2ccc(F)cc2)s1`, the AC50 was 3.16 µM [rising, partial curve, poor fit] under setting [1] and 4.47 µM [falling, single point] under setting [2].

For the compound `CCCn1c(=N)n(CC(=O)c2ccc([N+](=O)[O-])cc2)c2ccccc21`, the AC50 under setting [1] is 3.98 µM [rising, single point].

For `CC(=O)NC1C(c2nc3ccccc3s2)=C(c2ccccc2)C(=O)N1c1ccc(C)cc1` (stereo unspecified), under setting [1], the AC50 was 0.411 µM [rising, full curve, poor fit].

In the case of `O=C(NNC(=S)Nc1ccccc1)c1ccncc1`, the concentration at half-maximal activity (AC50) under setting [1] is 8.91 µM [falling, partial curve].

For `CCOc1ccc2ccccc2c1C(=O)NCC(c1ccc(N(C)C)cc1)N(C)C` (stereo unspecified), the half-maximal activity concentration (AC50) under setting [1] is 2.82 µM [rising, partial curve, poor fit].

`Cn1ccs/c1=N\C(=O)Nc1cccc(C(F)(F)F)c1`: the AC50 under setting [1] is 35.5 µM [falling, single point].

As for `O=C(Nc1cccn(Cc2cccc(F)c2)c1=O)NC1CCCCC1`, the AC50 under setting [1] was 35.5 µM [falling, single point].

In the case of `Brc1ccc(-c2csc(N3CCCCCC3)n2)cc1`, the half-maximal activity concentration (AC50) under setting [1] was 0.708 µM [falling, full curve, poor fit].

Regarding `O=C1CCc2ccc(NS(=O)(=O)c3ccc(F)cc3)cc2N1`, the AC50 under setting [1] was 20 µM [falling, single point].

`Cc1ccccc1CSCCNC(=O)Nc1ccccc1`: the AC50 under setting [1] is 35.5 µM [falling, single point].

For `Clc1ccc(OCCn2cnc3ccccc32)c(Cl)c1`, the AC50 under setting [1] was 1.64 µM [rising, partial curve, poor fit].

For `N/C(COc1cccc(C(F)(F)F)c1)=N\NC(=O)c1cccnc1Oc1ccccc1`, the AC50 under setting [1] was 35.5 µM [falling, single point].

Turning to `Cc1ccc(NS(=O)(=O)c2cccc(C(=O)NCCc3c[nH]c4ccccc34)c2)c(C)c1`, under setting [1], the AC50 was 20.6 µM [falling, single point].

Consider `CCC(=O)NC(c1ccc(Cl)cc1Cl)c1ccc2cccnc2c1O` (stereo unspecified), for which, under setting [1], the AC50 was 20 µM [falling, partial curve].

Consider `CN(C)C(=O)Cn1c(SCC(=O)NCc2ccc3c(c2)OCO3)nc2ccccc21`, for which the AC50 under setting [1] was 0.0231 µM [rising, full curve, poor fit].

As for `COc1ccc(NC(=O)C(=O)N/N=C(\C)CC(=O)Nc2ccccn2)c(OC)c1`, the AC50 under setting [1] is 8.91 µM [falling, partial curve, poor fit].

For `C/C(=N\OCc1ccccc1C#N)c1cc2ccccc2o1`, the concentration at half-maximal activity (AC50) under setting [1] is 1.26 µM [rising, full curve, poor fit].

For `Cc1cc(C(=O)C(C)OC(=O)c2cnccn2)c(C)n1-c1ccccc1` (stereo unspecified), the concentration at half-maximal activity (AC50) under setting [1] is 29.1 µM [falling, single point].

Regarding `COc1ccc(/C=C/C(=O)Nc2ccccc2C(=O)N2CCCC2)cc1`, under setting [1], the concentration at half-maximal activity (AC50) is 11.2 µM [falling, single point].

With `O=C(Nc1cccc(S(=O)(=O)N2CCCCC2)c1)c1cncc(Br)c1`, the AC50 under setting [1] is 5.8 µM [falling, single point].

As for `O=C(CSc1ccc(Cl)cc1)Nc1ccc(C2SCCS2)cc1`, the concentration at half-maximal activity (AC50) under setting [1] is 12.6 µM [rising, partial curve, poor fit].

`CC(=O)Oc1ccc(C(=O)Nc2ccccc2C(=O)N2CCCC2)cc1`: under setting [1], the concentration at half-maximal activity (AC50) is 35.5 µM [falling, single point].

In the case of `COc1cccc(-c2csc(N3CCN(CC(=O)NNC(=O)c4ccco4)CC3)n2)c1`, the AC50 under setting [1] was 5.62 µM [rising, single point].

As for `COc1ccc(C(=O)OCc2csc(C)n2)c(O)c1`, the AC50 under setting [1] was 0.316 µM [rising, full curve, poor fit].

As for `Cc1sc2nc(CN3CCN(S(=O)(=O)c4cccc5nonc45)CC3)[nH]c(=O)c2c1C`, the concentration at half-maximal activity (AC50) under setting [1] is 0.103 µM [rising, partial curve, poor fit].

As to `O=C(O)CCCn1c(O)c(C=C2N=c3ccccc3=N2)sc1=S`, the concentration at half-maximal activity (AC50) under setting [1] is 0.316 µM [falling, full curve, poor fit].

`Cn1c(SCC(=O)Nc2ccccc2Oc2ccccc2)nnc1C1CC1`: the half-maximal activity concentration (AC50) under setting [1] is 23.1 µM [rising, partial curve, poor fit].

Take `COCCCNC(=O)c1c(N)n(/N=C/c2ccccn2)c2nc3ccccc3nc12`: the AC50 under setting [1] is 11.2 µM [falling, partial curve].

Regarding `O=c1cc(-c2ccc(O)c(O)c2)oc2c1ccc1ccccc12`, the half-maximal activity concentration (AC50) under setting [1] is 2.59 µM [falling, partial curve, poor fit].

For `Cc1ccc(NS(=O)(=O)c2ccc(NC(=O)C(C)Sc3ccc(Cl)cc3)cc2)c(C)c1` (stereo unspecified), the AC50 runs as follows: under setting [1], 29.1 µM [falling, partial curve]; under setting [2], 25.9 µM [rising, single point].

Consider `CCc1ccc(C(=O)Nc2cc(C)ccc2F)s1`, for which the AC50 under setting [1] is 12.6 µM [falling, partial curve].

As to `CC1CCN(C(C(=O)O)c2ccccc2)CC1` (stereo unspecified), the concentration at half-maximal activity (AC50) under setting [1] was 6.31 µM [rising, partial curve, poor fit].

Turning to `COc1ccc(NC(C)=O)cc1NS(=O)(=O)c1ccc2c(c1)OCCO2`, under setting [1], the concentration at half-maximal activity (AC50) is 32.6 µM [rising, partial curve, poor fit].

With `COC(=O)c1n[nH]n(-c2cc(Cl)cc(Cl)c2)c1=O`, under setting [1], the AC50 was 10 µM [falling, single point].

For the compound `O=C(c1cc2ccccc2o1)c1nc2c(n1O)CCCCC2`, the AC50 under setting [1] is 3.26 µM [falling, partial curve, poor fit].

With `O=C(Nc1ccc(Br)cn1)c1ccc(Br)s1`, under setting [1], the AC50 was 11.2 µM [falling, single point].

For `CCOc1ccc(C(=O)C(CCC(CN(C)C)C(=O)c2ccc(OCC)cc2)CN(C)C)cc1` (stereo unspecified), the AC50 under setting [1] is 1.3 µM [falling, full curve] and the AC50 under setting [2] was 11.6 µM [rising, partial curve, poor fit].

In the case of `CCC(NC(=O)c1ccccc1NC(=O)c1ccccc1)C(=O)OC` (stereo unspecified), under setting [1], the half-maximal activity concentration (AC50) was 15.8 µM [falling, partial curve, poor fit].

`Cc1cc2nc3c(nc2cc1C)CCCC3`: the AC50 under setting [1] was 10 µM [rising, partial curve, poor fit].

As for `COC(=O)C(NC(C)=O)(Nc1ccc(Br)cc1)C(=O)OC`, the AC50 under setting [1] was 6.31 µM [rising, partial curve, poor fit].

Take `COc1ccc(N(CC(=O)Nc2cccc(OC)c2)S(=O)(=O)c2c(C)nn(C)c2C)cc1`: the AC50 under setting [1] was 1.78 µM [falling, partial curve].

For `COc1ccccc1NC(=O)Nc1nc(CC(=O)Nc2ccc(OC)c(OC)c2)cs1`, the AC50 under setting [1] is 0.461 µM [rising, partial curve, poor fit].

Regarding `O=C(C1COc2ccccc2O1)N1CCc2ccccc2C1` (stereo unspecified), under setting [1], the AC50 is 7.31 µM [rising, partial curve, poor fit].

As to `COc1cc(/C(C)=N/NC(=S)NC(C)C)cc(OC)c1OC`, the AC50 by setting is: under setting [1], 16.4 µM [falling, partial curve, poor fit]; under setting [2], 20.6 µM [falling, partial curve, poor fit].

As for `COc1ccc(S(N)(=O)=O)cc1C(=O)OCC(=O)Nc1sccc1C#N`, the AC50 under setting [1] was 14.6 µM [rising, partial curve].

For `CC(C)OC(=O)C(C(=O)C(F)(F)F)c1cc(NS(=O)(=O)c2ccc3ccccc3c2)c2ccccc2c1O` (stereo unspecified), under setting [1], the AC50 is 0.92 µM [falling, full curve].

For the compound `COc1ccc(C(=O)CC(=O)c2ccccc2O)cc1`, the AC50 under setting [1] was 3.55 µM [rising, partial curve, poor fit].

Turning to `CCN(CC)CCNC(=O)c1ccc2c(c1)ncn2C1CCCCC1`, the AC50 under setting [1] was 14.1 µM [rising, single point].

Take `O=c1/c(=C/c2ccc([N+](=O)[O-])cc2)sc2n1CCCN=2`: the concentration at half-maximal activity (AC50) under setting [1] was 14.1 µM [falling, single point].

Turning to `Cc1cc(C)c2cc(CN(CCO)Cc3nnnn3Cc3ccccc3)c(=O)[nH]c2c1`, under setting [1], the AC50 is 35.5 µM [falling, single point].

Turning to `Cc1cccc(NC(=O)c2ccccc2NC(=O)Cc2ccccc2)c1C`, the AC50 under setting [1] is 15.8 µM [falling, single point].

`O=C(NC1CCCCC1)c1cc2nc3c(c(C(F)(F)F)n2n1)CCCC3`: the concentration at half-maximal activity (AC50) under setting [1] was 3.26 µM [rising, partial curve, poor fit].

As for `CC[C@]12c3[nH]c4cc(CCC(=O)N(C)C)ccc4c3CCN1C(=O)[C@@H](CC(=O)NC/C=C(\C)CCC=C(C)C)C[C@@H]2C(=O)N1CCN(C(=O)C2CC2)CC1`, under setting [2], the AC50 was 23.1 µM [falling, partial curve, poor fit].

As to `O/N=C(/CCc1ccccc1)c1ccc2c(c1)OCCO2`, the concentration at half-maximal activity (AC50) under setting [1] was 3.98 µM [rising, partial curve].

Turning to `Cc1nc(Nc2cccc(C(F)(F)F)c2)nc2c1C(=O)CC(C)C2` (stereo unspecified), under setting [1], the concentration at half-maximal activity (AC50) was 0.00517 µM [rising, full curve, poor fit].

For the compound `O=C(c1[nH]nc2c1CCc1ccccc1-2)N1CCN(Cc2ccc3c(c2)OCO3)CC1`, the half-maximal activity concentration (AC50) under setting [1] was 11.2 µM [falling, single point].

Take `CCOc1ccc(Cl)cc1CSc1n[nH]c(C)n1`: the half-maximal activity concentration (AC50) under setting [1] is 17.8 µM [rising, single point].

For the compound `O=C(c1cccc(S(=O)(=O)N2CCc3ccccc32)c1)N1CCCC(C(F)(F)F)C1` (stereo unspecified), under setting [1], the half-maximal activity concentration (AC50) was 6.51 µM [falling, full curve].

Take `COc1cccc(Nc2ncnc3sccc23)c1`: the half-maximal activity concentration (AC50) under setting [1] was 14.1 µM [falling, single point].

Take `O=C1C2C3C=CC(CC3)C2C(=O)N1/N=C/c1c[nH]c2ccccc12` (stereo unspecified): the AC50 under setting [1] was 2 µM [falling, partial curve, poor fit].

As for `NC(=O)CSc1nnnn1-c1ccc(OC(F)(F)F)cc1`, the AC50 under setting [1] is 1.78 µM [rising, partial curve].
